No constants are given. Whether binding was seen depends on the method and setting. For part of these data: Binding seen in cells or lysates may run through a third protein. Some entries that bind do so weakly or less than the wild type.
Legend:
[1] = target: T1, recombinant Plasmodium falciparum apicortin (Plasmodium falciparum) (UniProt C0H4E4); experiment: pull-down; recombinant PfApicortin (50 µg) bound to Ni-NTA beads, incubated with parasite lysate (100 µg) at 4 °C overnight, washed; tubulins detected by western blot; beads without apicortin as control; only the target purified
T1 sequence: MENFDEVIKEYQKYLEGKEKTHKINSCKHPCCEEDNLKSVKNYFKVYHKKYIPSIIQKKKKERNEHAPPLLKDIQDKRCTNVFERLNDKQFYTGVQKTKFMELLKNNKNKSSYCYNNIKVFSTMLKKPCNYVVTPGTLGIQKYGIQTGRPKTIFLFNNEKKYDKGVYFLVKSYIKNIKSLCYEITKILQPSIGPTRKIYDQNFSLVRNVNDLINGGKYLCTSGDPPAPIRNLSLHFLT

By UniProt entry, the sequences of proteins in these tests, tags left out.
UniProt Q7KQL5: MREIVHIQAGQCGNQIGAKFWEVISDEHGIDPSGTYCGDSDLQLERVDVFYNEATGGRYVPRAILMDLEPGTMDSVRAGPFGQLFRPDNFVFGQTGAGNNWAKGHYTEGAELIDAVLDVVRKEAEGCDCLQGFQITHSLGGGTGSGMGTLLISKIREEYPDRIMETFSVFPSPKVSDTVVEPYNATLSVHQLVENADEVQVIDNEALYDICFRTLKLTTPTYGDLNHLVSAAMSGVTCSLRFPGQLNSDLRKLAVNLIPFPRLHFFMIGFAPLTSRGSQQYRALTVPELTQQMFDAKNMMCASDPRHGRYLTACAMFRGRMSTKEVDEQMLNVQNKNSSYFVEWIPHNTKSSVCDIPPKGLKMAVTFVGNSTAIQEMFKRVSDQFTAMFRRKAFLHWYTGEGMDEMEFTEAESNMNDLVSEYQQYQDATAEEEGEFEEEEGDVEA
UniProt Q6ZLZ9: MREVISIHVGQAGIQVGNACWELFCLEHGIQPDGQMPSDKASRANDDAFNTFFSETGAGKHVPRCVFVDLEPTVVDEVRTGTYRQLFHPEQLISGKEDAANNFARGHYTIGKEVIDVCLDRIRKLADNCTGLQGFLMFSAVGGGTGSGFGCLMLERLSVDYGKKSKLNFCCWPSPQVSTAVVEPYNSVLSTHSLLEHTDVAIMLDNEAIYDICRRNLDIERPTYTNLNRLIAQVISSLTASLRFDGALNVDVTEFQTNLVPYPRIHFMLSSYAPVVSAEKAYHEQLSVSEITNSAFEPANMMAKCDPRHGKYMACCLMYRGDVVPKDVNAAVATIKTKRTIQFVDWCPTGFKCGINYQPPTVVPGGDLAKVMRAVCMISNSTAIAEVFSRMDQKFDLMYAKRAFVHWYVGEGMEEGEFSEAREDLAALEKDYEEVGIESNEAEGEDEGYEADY

[2] = target: T1, recombinant Plasmodium falciparum apicortin (Plasmodium falciparum); experiment: ELISA; indirect ELISA: recombinant PfApicortin (100 ng) coated in bicarbonate buffer; recombinant tubulins 50-1600 ng, 1 h at 37 °C; detected with anti-tubulin antibody, absorbance at 450 nm; also with apicortin pre-incubated with 10 µM TMX (absorbance reduced); both purified

binding [1]	binding [2]	Substance
binds	–	Plasmodium falciparum β-tubulin of the parasite lysate (from UniProt Q7KQL5 1-445)
–	binds	recombinant Plasmodium falciparum α-tubulin-I (from UniProt Q6ZLZ9 1-453)
binds	–	Plasmodium falciparum α-tubulin-I of the parasite lysate (from UniProt Q6ZLZ9 1-453)
